Measured values: patent publication US6890727B2, “Diagnostic assay for Alzheimer's disease: assessment of Aβ abnormalities” (The General Hospital Corporation, priority 1994, dated 2005)

Test: Zinc-induced tinctorial amyloid formation (Congo Red, polarized light)
Format: physicochemical
Conditions: incubation with Zn^2+
Protocol: FIGS. 8a and 8b are photographs showing zinc-induced tinctorial amyloid formation. […] The particle diameter is 40μ. […] The experiment was repeated with EDTA (50 μM) substituted for Zn^2+ and yielded no visible material.
The particle diameter is 40μ. […] The experiment was repeated with EDTA (50 μM) substituted for Zn^2+ and yielded no visible material.

| Substance | birefringence of Congo Red stained precipitate under polarized light |
| --- | --- |
| Aβ1-40: synthetic peptide representing secreted human Aβ1-40, 4.3 kDa, main component of Alzheimer cerebral amyloid | green birefringence |
| rat Aβ1-40: rat/mouse species of Aβ1-40; Arg→Gly, Tyr→Phe, His→Arg at positions 5, 10 and 13 (DAEFGHDSGFEVRHQKLVFFAEDVGSNKGAIIGLMVGGVV; Amyloid-beta protein 40; UniProt P08592 672-711, looked up) | minimal birefringence |
